Experimental data taken from US6479517B1, “Phosphorous-containing benzothiophenes” (Eli Lilly and Company, priority 1995, dated 2002).
For at least one compound, name, drawing or mass did not settle the structure.

System: ovariectomized rats
Experiment: Serum cholesterol in ovariectomized rat post-menopausal model
Format: in vivo
Conditions: compared to ovariectomized control animals; EE2 orally at 0.1 mg/kg/day
Procedure: In the examples illustrating the methods, a post-menopausal model was used in which effects of different treatments upon circulating lipids were determined.
Seventy-five day old female Sprague Dawley rats (weight range of 200 to 225g) were obtained from Charles River Laboratories (Portage, Mich.). The animals were either bilaterally ovariectomized (OVX) or exposed to a Sham surgical procedure at Charles River Laboratories, and then shipped after one week. Upon arrival, they were housed in metal hanging cages in groups of 3 or 4 per cage and had ad libitum access to food (calcium content approximately 0.5%) and water for one week. Room temperature was maintained at 22.20°±1.7° C. with a minimum relative humidity of 40%. The photoperiod in the room was 12 hours light and 12 hours dark.
Dosing Regimen Tissue Collection. […] The animals were then sacrificed by asphyxiation with CO2, the uterus was removed through a midline incision, and a wet uterine weight was determined.
Cholesterol Analysis. […] Serum cholesterol was determined using a Boehringer Mannheim Diagnostics high performance cholesterol assay. […] The hydrogen peroxide was then reacted with phenol and 4-aminophenazone in the presence of peroxidase to produce a p-quinone imine dye, which was read spectrophotemetrically at 500 nm. Cholesterol concentration was then calculated against a standard curve. […]

C#C[C@]1(O)CC[C@H]2[C@@H]3CCc4cc(O)ccc4[C@H]3CC[C@@]21C [EE2, 17α-ethynyl estradiol, reference compound]
Effect on serum cholesterol (in words): caused a decrease in serum cholesterol
